Our source for the binding values is paper doi:10.64898/2025.12.05.692564.

Sequences of proteins named here, by UniProt entry; tags and fusion partners are left off.
UniProt Q61466: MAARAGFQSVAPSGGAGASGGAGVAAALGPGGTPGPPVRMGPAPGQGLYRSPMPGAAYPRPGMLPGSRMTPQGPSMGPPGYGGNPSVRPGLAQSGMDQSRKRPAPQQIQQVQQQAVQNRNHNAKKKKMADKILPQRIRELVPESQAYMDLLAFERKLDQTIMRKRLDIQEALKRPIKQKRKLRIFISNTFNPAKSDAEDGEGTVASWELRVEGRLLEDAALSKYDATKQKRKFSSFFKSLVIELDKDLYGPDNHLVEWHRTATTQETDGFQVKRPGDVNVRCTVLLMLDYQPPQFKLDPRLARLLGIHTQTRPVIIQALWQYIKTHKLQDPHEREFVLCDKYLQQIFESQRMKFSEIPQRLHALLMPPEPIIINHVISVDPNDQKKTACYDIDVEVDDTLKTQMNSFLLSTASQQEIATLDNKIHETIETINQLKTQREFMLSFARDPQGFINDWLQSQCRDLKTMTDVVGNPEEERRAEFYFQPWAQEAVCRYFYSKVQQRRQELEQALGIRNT
UniProt Q6P9Z1: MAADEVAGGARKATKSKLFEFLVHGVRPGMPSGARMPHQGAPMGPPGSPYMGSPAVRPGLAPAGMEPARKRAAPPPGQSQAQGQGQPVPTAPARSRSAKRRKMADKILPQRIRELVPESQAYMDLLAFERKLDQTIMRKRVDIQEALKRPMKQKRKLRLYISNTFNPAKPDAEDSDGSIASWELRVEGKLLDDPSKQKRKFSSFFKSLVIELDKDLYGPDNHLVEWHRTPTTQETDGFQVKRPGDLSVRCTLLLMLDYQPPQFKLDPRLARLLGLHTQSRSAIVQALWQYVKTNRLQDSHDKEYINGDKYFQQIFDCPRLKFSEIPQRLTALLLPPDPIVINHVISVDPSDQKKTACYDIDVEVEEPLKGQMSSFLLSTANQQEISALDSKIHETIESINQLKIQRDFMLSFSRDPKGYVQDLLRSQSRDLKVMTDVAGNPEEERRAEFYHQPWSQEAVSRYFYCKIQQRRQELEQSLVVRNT
UniProt Q8VDW0: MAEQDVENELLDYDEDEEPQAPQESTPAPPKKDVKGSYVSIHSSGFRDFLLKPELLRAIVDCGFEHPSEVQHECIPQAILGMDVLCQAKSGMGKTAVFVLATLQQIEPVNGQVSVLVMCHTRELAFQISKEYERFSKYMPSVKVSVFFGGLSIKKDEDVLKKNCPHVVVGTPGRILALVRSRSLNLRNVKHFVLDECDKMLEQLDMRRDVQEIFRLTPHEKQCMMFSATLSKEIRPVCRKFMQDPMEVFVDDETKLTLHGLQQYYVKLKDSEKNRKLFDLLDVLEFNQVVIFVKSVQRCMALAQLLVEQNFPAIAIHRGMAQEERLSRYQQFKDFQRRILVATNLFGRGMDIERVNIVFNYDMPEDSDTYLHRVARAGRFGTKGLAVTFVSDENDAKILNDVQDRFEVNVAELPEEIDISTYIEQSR
UniProt Q3UH60: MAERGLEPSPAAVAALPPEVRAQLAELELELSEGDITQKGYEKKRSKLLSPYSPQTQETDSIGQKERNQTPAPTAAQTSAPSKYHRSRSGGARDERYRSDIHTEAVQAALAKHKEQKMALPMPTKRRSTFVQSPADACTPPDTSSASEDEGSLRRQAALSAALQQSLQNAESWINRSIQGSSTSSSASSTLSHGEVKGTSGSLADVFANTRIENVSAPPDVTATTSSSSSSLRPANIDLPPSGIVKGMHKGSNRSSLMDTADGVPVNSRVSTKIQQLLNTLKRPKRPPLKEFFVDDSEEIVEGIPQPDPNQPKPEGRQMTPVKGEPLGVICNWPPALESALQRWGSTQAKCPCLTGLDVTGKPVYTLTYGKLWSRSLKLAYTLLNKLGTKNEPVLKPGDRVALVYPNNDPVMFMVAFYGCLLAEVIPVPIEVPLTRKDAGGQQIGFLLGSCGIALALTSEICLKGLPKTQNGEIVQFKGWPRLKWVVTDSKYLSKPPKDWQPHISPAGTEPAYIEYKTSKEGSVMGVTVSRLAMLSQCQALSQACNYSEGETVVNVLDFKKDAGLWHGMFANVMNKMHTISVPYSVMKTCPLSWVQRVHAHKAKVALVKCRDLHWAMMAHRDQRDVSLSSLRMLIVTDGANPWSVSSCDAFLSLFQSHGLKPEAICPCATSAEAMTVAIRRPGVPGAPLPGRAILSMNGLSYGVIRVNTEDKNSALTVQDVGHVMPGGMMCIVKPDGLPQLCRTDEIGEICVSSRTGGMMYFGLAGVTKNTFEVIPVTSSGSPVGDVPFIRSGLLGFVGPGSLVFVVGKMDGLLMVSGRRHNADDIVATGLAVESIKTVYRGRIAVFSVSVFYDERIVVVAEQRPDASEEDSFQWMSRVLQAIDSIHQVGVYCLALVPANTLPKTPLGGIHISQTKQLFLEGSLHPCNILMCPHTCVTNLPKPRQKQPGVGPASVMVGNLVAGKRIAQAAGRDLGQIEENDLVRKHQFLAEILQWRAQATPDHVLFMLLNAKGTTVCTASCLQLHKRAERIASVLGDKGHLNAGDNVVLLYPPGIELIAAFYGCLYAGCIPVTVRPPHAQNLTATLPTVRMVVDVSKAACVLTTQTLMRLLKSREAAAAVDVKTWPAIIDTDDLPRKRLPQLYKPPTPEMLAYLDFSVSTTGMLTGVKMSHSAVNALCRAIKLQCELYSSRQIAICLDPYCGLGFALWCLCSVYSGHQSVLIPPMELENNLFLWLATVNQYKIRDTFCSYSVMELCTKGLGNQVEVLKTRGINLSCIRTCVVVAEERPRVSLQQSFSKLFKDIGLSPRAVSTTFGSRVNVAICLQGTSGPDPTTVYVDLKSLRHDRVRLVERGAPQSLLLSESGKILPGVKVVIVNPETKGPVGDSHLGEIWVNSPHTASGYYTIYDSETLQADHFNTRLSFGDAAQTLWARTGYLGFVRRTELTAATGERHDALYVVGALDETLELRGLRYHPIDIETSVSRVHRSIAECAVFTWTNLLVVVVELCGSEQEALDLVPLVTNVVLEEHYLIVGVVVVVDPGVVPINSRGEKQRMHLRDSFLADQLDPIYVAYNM
UniProt Q91ZW3: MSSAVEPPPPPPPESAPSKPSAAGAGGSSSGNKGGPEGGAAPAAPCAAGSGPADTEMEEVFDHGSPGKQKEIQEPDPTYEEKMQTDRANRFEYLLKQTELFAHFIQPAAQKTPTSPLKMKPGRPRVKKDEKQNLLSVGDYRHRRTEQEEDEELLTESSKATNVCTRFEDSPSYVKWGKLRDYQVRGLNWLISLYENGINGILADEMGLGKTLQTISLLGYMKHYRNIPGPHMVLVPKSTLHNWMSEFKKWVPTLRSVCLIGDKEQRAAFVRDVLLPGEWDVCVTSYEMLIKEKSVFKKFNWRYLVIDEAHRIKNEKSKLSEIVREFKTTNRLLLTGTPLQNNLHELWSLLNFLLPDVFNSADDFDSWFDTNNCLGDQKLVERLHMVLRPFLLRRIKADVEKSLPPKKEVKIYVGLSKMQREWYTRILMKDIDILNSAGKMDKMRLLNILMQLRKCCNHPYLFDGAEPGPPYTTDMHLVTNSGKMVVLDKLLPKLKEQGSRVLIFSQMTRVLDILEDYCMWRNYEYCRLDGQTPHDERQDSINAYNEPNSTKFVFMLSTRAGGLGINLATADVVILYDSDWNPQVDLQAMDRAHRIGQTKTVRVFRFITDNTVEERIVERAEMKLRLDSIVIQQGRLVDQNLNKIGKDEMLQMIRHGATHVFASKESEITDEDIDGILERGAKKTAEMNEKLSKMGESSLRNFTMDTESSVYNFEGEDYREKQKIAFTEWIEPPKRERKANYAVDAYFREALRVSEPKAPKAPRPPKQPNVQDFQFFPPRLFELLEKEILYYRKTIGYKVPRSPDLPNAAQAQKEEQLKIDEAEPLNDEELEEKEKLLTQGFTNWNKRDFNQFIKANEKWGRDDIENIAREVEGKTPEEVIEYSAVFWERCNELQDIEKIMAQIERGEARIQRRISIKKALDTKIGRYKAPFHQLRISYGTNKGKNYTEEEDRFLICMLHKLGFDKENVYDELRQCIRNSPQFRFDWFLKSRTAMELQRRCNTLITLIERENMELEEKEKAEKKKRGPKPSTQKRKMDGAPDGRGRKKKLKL

Results are given in words; binding and its absence hold for the method and conditions named. Binding seen in cells or lysates may run through a third protein. A yes stands for co-enrichment or nearness to the bait. Other partners may have been found.

The target in assay [1] is SMARCD1-FKBPv-V5 (mouse) (UniProt Q61466). Nature of the assay: affinity purification with mass spectrometry.
The target in assay [2] is SMARCD3-FKBPv-V5 (mouse) (UniProt Q6P9Z1). Description: affinity purification with mass spectrometry.

Regarding DDX39A (from UniProt Q8VDW0 1-427), the binding result in assay [1] and in assay [2] was “binds” in each case.
DIP2B (from UniProt Q3UH60 1-1574): the binding result in assay [1] is given as “binds”.
With SMARCA5 (from UniProt Q91ZW3 1-1051), the binding entry in assay [1] and in assay [2] was “binds” each time.
